Test results reported in PubChem BioAssay AID2685 (National Center for Advancing Translational Sciences (NCATS), 2010).
Some of the results follow. These are further read-outs of the screen, such as a control signal, another cell line or another target. No call is given for them. Most of these compounds were active or inconclusive in the main read-out, so they are no random draw. Words in brackets tell the shape of the fitted curve; partial curves, single points and poor fits give uncertain potencies.

Test: qHTS Assay for Lipid Storage Modulators in Drosophila S3 Cells;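 as to cell number change: cells counted by Cell Tracker Red CMTPX staining in the red channel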
Details: BODIPY lipid droplet fluorescence, 18-24 h; for cell number change: measured here: cell count max response, cells fed with added oleic acid
How it was run: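 Laser-scanning cytometry quantifies lipid droplet accumulation (500–530 nm total intensity; droplet/cell object ratio) in oleic acid-fed (400 uM added) Drosophila S3 cells treated with a concentration series. 20 uM Triacsin C defined 100% inhibition.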

[1] = measured here: cell number channel AC50, cells fed with added oleic acid
[2] = measured here: lipid fluorescence (Fed channel) AC50, cells fed with added oleic acid

Compound | cell number change [%] | AC50 [1] | AC50 [2]
CCOc1ccc2nc(N3CCCC(C(=O)NCCCN4CC(C)CC(C)C4)C3)sc2c1 (stereo unspecified) | 30.8 | 0.461 µM [rising, full curve, poor fit] | –
Cc1cccc(NC(=S)N2CCN(S(=O)(=O)c3ccccc3)CC2)c1 | 10.7 | – | 18.4 µM [rising, partial curve]
CN(CC(=O)Nc1ccc(F)cc1)C(=O)COC(=O)c1ccccc1 | -3.61 | – | –
Fc1ccc(/C=N/n2cnn(Cc3ccccc3Cl)c2=S)cc1 | – | – | 29.1 µM [rising, single point]
O=S(=O)(Nc1cccc(-c2ccc3nncn3n2)c1)c1cccc(F)c1 | -18 | – | –
O=C(O)CC1CCS(=O)(=O)C1 (stereo unspecified) | 7.8 | – | 0.411 µM [falling, single point]
Cc1nn(-c2ccccc2)c(C)c1/C=N/n1c(-c2ccncc2)n[nH]c1=S | 17.7 | – | –
COc1ccc(/C=N/NC(=O)c2ccc(OC)c(OC)c2)cc1COc1c(F)c(F)c(F)c(F)c1F | 5.49 | – | –
CCCCCCc1cc2cc(-c3nnc(-c4ccccc4O)o3)c(=O)oc2cc1O | 1.08 | – | 29.1 µM [rising, single point]
c1cncc(-c2csc(NCc3ccco3)n2)c1 | – | 0.291 µM [rising, partial curve, poor fit] | –
COc1ccc2c(c1OC)C(=O)OC2C/C(=N\NC(N)=O)c1ccccc1 (stereo unspecified) | -18.1 | – | –
O=C(NCCCN1CCCC1=O)c1cccc(S(=O)(=O)N2CCN(c3ccc(F)cc3)CC2)c1 | 22.3 | – | 0.411 µM [rising, partial curve]
c1coc(CSCc2cn3cccnc3n2)c1 | -0.506 | – | –
Cc1ccc(C)c(N2N=C(C(=O)Nc3ccc(N4CCOCC4)cc3)CCC2=O)c1 | 4.59 | – | 10.3 µM [rising, partial curve]
CN(C)/C=C(\C=O)c1c(Cl)cccc1Cl | 41.9 | 0.184 µM [rising, full curve, poor fit] | 3.26 µM [rising, full curve, poor fit]
COc1ccc(C2/C=C\CN(C(=O)c3ccccc3)[C@H](Cc3ccccc3)C(=O)N2Cc2ccc(F)cc2)cc1 (stereo partly specified) | 12.5 | – | 2.91 µM [rising, partial curve, poor fit]
Nc1nc(SCC(=O)NC2CCCc3ccccc32)n[nH]1 (stereo unspecified) | – | 0.00411 µM [rising, full curve, poor fit] | –
CC1CCCN(S(=O)(=O)c2ccc(NC(=O)C3CC(=O)N(C(C)(C)C)C3)cc2)C1 (stereo unspecified) | -12.3 | – | 29.1 µM [falling, single point]
Cc1ccc(NC(=O)CSc2ccc(-c3ccccn3)nn2)cc1F | -16.8 | – | –
Cc1ccc(CNc2oc(C)nc2C#N)cc1 | -16.9 | – | 29.1 µM [falling, single point]
O=C(OCC#CCNc1nnc(-c2cccc3ccccc23)o1)c1cccs1 | 28.5 | – | –

Shown with tabs: entries from further up
Compound	cell number change [%]	AC50 [1]	AC50 [2]
Cc1nn(-c2ccccc2)c(C)c1/C=N/n1c(-c2ccncc2)n[nH]c1=S	17.7	–	–
COc1ccc2c(c1OC)C(=O)OC2C/C(=N\NC(N)=O)c1ccccc1 (stereo unspecified)	-18.1	–	–
CN(C)/C=C(\C=O)c1c(Cl)cccc1Cl	41.9	0.184 µM [rising, full curve, poor fit]	3.26 µM [rising, full curve, poor fit]

(listing goes on)

Compound | cell number change [%] | AC50 [1] | AC50 [2]
CN1CCC(=NNc2ccc(S(=O)(=O)N3CCOCC3)cc2[N+](=O)[O-])CC1 | 22.7 | 1.84 µM [falling, partial curve, poor fit] | 29.1 µM [rising, single point]
COc1cccc(CN2CCC(C(=O)N3CCN(Cc4ccc5c(c4)OCO5)CC3)CC2)c1OC | – | – | 29.1 µM [falling, single point]
CC1CCN(C(=O)Cn2c3ccccc3c3nc4n(c(=O)c32)CCCS4)CC1 | -35.3 | 9.2 µM [falling, partial curve] | 13 µM [falling, partial curve]
COc1cc(NC(=O)Cn2c(-c3cncs3)nc3ccccc32)cc(OC)c1OC | -13.3 | – | 13 µM [falling, single point]
CCCOc1ccc(CSc2ncn[nH]2)cc1 | -6.92 | – | 13 µM [rising, partial curve]
Cc1ccc(Cl)cc1NC(=O)c1ccc(Cn2cc(Cl)cn2)cc1 | 6.33 | – | 7.31 µM [rising, partial curve]
COC(=O)CCCC1=CC2=CC(=O)C(C)(OC(=O)c3cccs3)C(=O)C2=CN1CCN1CCOCC1 (stereo unspecified) | 34 | 0.0517 µM [rising, full curve, poor fit] | –
Cc1c(CCOC(=O)C2C3CC4CC(C3)CC2C4)sc[n+]1CC(=O)c1ccc(Br)cc1 (stereo unspecified) | -61.9 | 32.6 µM [falling, single point] | –
CCCn1c2ccccc2c2nnc(SCC(=O)OC)nc21 | -25.9 | – | 3.66 µM [rising, single point]
CCOC(=O)c1cc(C(=O)OCC)c(=O)[nH]c1N1CCCCC1 | – | 0.00517 µM [rising, full curve, poor fit] | –
Cc1ccnc(NC(=O)CSc2cc(=O)n(C)c3ccccc23)c1 | – | 0.206 µM [falling, full curve, poor fit] | –
O=C(c1cc(C2CC2)nn1-c1ccccc1)N1CCN(Cc2ccc(Cl)cc2)CC1 | -22.3 | – | 10.3 µM [falling, partial curve]
COc1ccccc1CNS(=O)(=O)c1ccc2c(c1)CCCN2C(C)=O | 2.82 | – | 29.1 µM [rising, single point]
COc1cccc(C(=O)/C=C/Nc2ccc(S(=O)(=O)Nc3cccc(C(C)=O)c3)cc2)c1 | – | – | 10.3 µM [falling, partial curve]
COc1ccc(/C=N/NC(=O)C(=O)NCC2CCCO2)cc1 (stereo unspecified) | 10.3 | – | –
O=C(CN(C(=O)c1csnn1)c1cccc2ccccc12)NCc1ccc(F)cc1 | 23.4 | – | 11.6 µM [rising, single point]
Cn1c(=O)c2c(nc(CN3CCN(c4ccc(F)cc4)CC3)n2CCN2CCOCC2)n(C)c1=O | 13 | – | 0.0291 µM [rising, full curve, poor fit]
O=CN(Cc1ccco1)C1(C(=O)NC2CCCCC2)CCCCC1 | -11.2 | – | –
CC(C(=O)Nc1ccc([N+](=O)[O-])cc1Cl)N1CCN(S(=O)(=O)c2cccs2)CC1 (stereo unspecified) | -0.566 | – | 0.00411 µM [rising, full curve, poor fit]
Cc1ccc(NC(=O)C2CCCN2C(=O)OCc2ccccc2)cc1F (stereo unspecified) | 7.79 | – | 29.1 µM [rising, single point]
Cc1ccc(-c2ccc(=O)n(CC(=O)N3CCN(c4cc(Cl)ccc4C)CC3)n2)cc1 | -30.9 | 32.6 µM [falling, single point] | 0.058 µM [falling, full curve, poor fit]

Exported tab-delimited: entries from further up.
Compound	cell number change [%]	AC50 [1]	AC50 [2]
O=CN(Cc1ccco1)C1(C(=O)NC2CCCCC2)CCCCC1	-11.2	–	–
CC(C(=O)Nc1ccc([N+](=O)[O-])cc1Cl)N1CCN(S(=O)(=O)c2cccs2)CC1 (stereo unspecified)	-0.566	–	0.00411 µM [rising, full curve, poor fit]

Later entries.

Compound | cell number change [%] | AC50 [1] | AC50 [2]
Cc1nn2c(N3CCN(c4ccccn4)CC3)cc(C(C)C)nc2c1-c1ccccc1 | -12.3 | – | 0.164 µM [rising, full curve, poor fit]
O=C(Cc1ccc(Cl)cc1)Nc1ccc(Cl)cn1 | -4.73 | – | 29.1 µM [falling, single point]
CN(C)/C=C/C1=C([N+](=O)[O-])C(c2cccc([N+](=O)[O-])c2)NC(=O)N1 (stereo unspecified) | -15.3 | – | –
COC(=O)CNC(=O)CNC(=O)c1nn(-c2ccc(OC)c(OC)c2)c(=O)c2ccccc12 | 22.5 | – | –
CCc1ccc(S(=O)(=O)NC2CCCCNC2=O)cc1 (stereo unspecified) | 40.8 | 29.1 µM [rising, partial curve] | 29.1 µM [rising, single point]
CCN(CC(=O)Nc1ccc(C(=O)OC)cc1)C1CCCCC1 | 32.9 | 0.731 µM [rising, full curve, poor fit] | 35.5 µM [falling, single point]
CCC(=O)Oc1ccc2c(C)c(Cl)c(=O)oc2c1 | -15.5 | – | 0.103 µM [falling, full curve, poor fit]
Cc1c(S(=O)(=O)c2ccccn2)c(N)n(Cc2ccccc2)c1C | 13.7 | – | 29.1 µM [rising, single point]
CC(C)(C)C(=O)Nc1cc(S(=O)(=O)N2CCCCC2)ccc1N1CCCCC1 | 9.99 | – | 2.91 µM [rising, single point]
CCOc1ccc(NS(=O)(=O)c2ccc(NS(=O)(=O)c3ccc(SC)cc3)cc2)cc1 | -10.4 | – | 18.4 µM [rising, partial curve]
Cc1cccc(C(CC(=O)NCCc2ccccc2)c2ccccc2)c1O (stereo unspecified) | 36.5 | 11.6 µM [rising, partial curve, poor fit] | 16.4 µM [rising, partial curve]
CC12CCCCC1(O)[N+](=O)C1=C(CCCC1)N2[O-] (stereo unspecified) | 2.71 | – | –
COc1ccc(/C=N/NC(=O)c2cc(-c3ccccc3OC)nc3ccccc23)cc1COC(C)=O | 31.3 | 8.2 µM [rising, partial curve] | –
Cc1ccsc1C(=O)Nc1ccccc1N1CCOCC1 | 13.6 | – | 5.17 µM [rising, single point]
Cc1ccc(S(=O)(=O)NC(C)C(c2cccs2)N2CCN(c3ccccc3)CC2)cc1 (stereo unspecified) | – | – | 29.1 µM [rising, single point]
C/C(=N\Nc1ccc(F)cc1F)c1ccccc1O | 85.8 | 20.6 µM [rising, partial curve, poor fit] | –
CCCn1c(NCc2cccs2)nc2ccccc21 | -5.57 | – | –
COc1ccc(Cl)cc1NC(=O)CN1CCN(S(=O)(=O)N2CCC(C)CC2)CC1 | 13 | – | –
O=C(NCc1ccccc1)C1CCC(CNc2c(N3CCCCC3)c(=O)c2=O)CC1 (stereo unspecified) | -36.8 | 0.146 µM [falling, full curve, poor fit] | 0.82 µM [falling, partial curve]
CN(C)c1cccc(NC(=O)CCc2ccccc2)c1 | 87 | – | 29.1 µM [rising, single point]
COc1ccc(C(CC(=O)N2CCOCC2)c2c(O)cc(OC)cc2OC)cc1 (stereo unspecified) | 21.4 | – | 13 µM [rising, partial curve]
